# Test results: PubChem BioAssay AID504467 (National Center for Advancing Translational Sciences (NCATS), 2011)
# Out of some 330,000 compounds screened, about 7,700 (2.3%) were called active. Inconclusive results, whose numbers are uncertain, are shown with a selection of clear calls. Calls come from the whole dose curve; as a rule, active = well fitted inhibition curve with a large enough effect; inconclusive = small, poorly fitted or top-dose-only effect, or effect the other way; inactive = flat fitted curve, though single readings scatter. Potencies beside an inconclusive call are fits to weak or partial responses and may not hold up.
# Assay: qHTS screen for small molecules that inhibit ELG1-dependent DNA repair in human embryonic kidney (HEK293T) cells expressing luciferase-tagged ELG1; note: nearly all actives have a fitted effect of over 55% in size
# Details: HEK293T ELG1-luciferase reporter, luminescence, 16 h, DNA damage induced by 5-fluorouridine; series mostly up to 46.1 µM
# Method in brief: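 Reporter activity after DNA damage by 5-fluorouridine is monitored. Compound-treated cells incubate 16 hr at 37 °C, then ONE-Glo is added for 30 min before luminescence reading.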
# Potency is the fitted concentration of half-maximal effect.
row,Compound,Potency
1,CCOc1cc(S(=O)(=O)NCCc2ccccc2C)c(OCC)cc1-n1cnnn1,"inconclusive: 23.1 µM [inhibitor, partial curve, poor fit]"
2,O=C(O)c1ccc(N(Cc2ccccc2)S(=O)(=O)c2ccccc2)cc1,inactive
3,COc1cc(C)c(N(C(C)=O)c2ccccc2)c(C)c1,"inconclusive: 29.1 µM [inhibitor, single point]"
4,C=CCOC(=O)C(C#N)c1nc2ccccc2nc1N1CCN(c2ccccc2OCC)CC1 (stereo not given),active: 14.6 µM
5,Cn1c(=O)n(Cc2ccccc2F)c(=O)c2c1nc1n2CCCN1CCc1ccccc1,"inconclusive: 11.2 µM [inhibitor, partial curve, poor fit]"
6,COc1ccc(OCc2n(CC(=O)OC3CC(C)CCC3C(C)C)c3ccccc3[n+]2C)cc1 (stereo not given),"inconclusive: 20.6 µM [inhibitor, single point]"
7,CCN(CC)c1ccc(NC(=O)CN2C(=O)CSc3ncccc32)c(C)c1,"inconclusive: 1.64 µM [inhibitor, partial curve]"
8,Cc1cnc(C(=O)OCC(=O)Nc2ccc3c(c2)OCCO3)cn1,"inconclusive: 18.3 µM [activator, partial curve, poor fit]"
9,O=c1cc(CSc2ccc(Cl)cc2)nc(-c2ccccn2)[nH]1,"inconclusive: 32.6 µM [activator, single point]"
10,CC1=NN(C(N)=S)C(=O)C1N=Nc1ccc(C)c(Br)c1 (stereo not given),"inconclusive: 7.3 µM [activator, partial curve]"
11,c1ccc2c(N3CCCCC3)nc(N3CCOCC3)nc2c1,"inconclusive: 29.1 µM [inhibitor, single point]"
12,COc1ccccc1OCCCCNCCO,inactive
13,CCOC(=O)/C(=C\c1cccc(O)c1)c1nc2sc(C)c(C)c2c(=O)[nH]1,"inconclusive: 18.4 µM [inhibitor, single point]"
14,Cc1cc2c(NC(=O)Nc3ccc(F)cc3)cccc2nn1,"inconclusive: 23.1 µM [activator, single point]"
15,CCOc1ccc(NC(=O)CSc2nc(=O)n(CCN3CCOCC3)c3c2CCCC3)cc1,inactive
16,CC(=O)c1ccc(NC(=O)CSc2nc(N3CCOCC3)nc(N3CCOCC3)n2)cc1,"inconclusive: 29.1 µM [activator, single point]"
17,COC(=O)C1=C(C)NC(=O)/C1=C\N(C)C,"inconclusive: 0.0291 µM [activator, full curve, poor fit]"
18,O=C(CSc1cccs1)Nc1ccc2ccccc2c1,"inconclusive: 29.1 µM [activator, single point]"
19,COc1ccc(N=C(c2ccccc2)c2c(C)[nH]n(-c3ccccc3)c2=O)c(OC)c1,"inconclusive: 23.1 µM [inhibitor, single point]"
20,N#CCSc1nc(-c2ccccc2)nc2ccccc12,"inconclusive: 14.6 µM [inhibitor, partial curve, poor fit]"
21,Cc1ccc2[nH]c(C(=O)O)c(NC(=O)CN3CCN(c4cccc(C)c4C)CC3)c2c1,inactive
22,O=C(CC(Nc1cccc(Cl)c1Cl)C(=O)O)c1ccccc1 (stereo not given),inactive
23,Fc1ccc(N2CCN(Cc3nnc(-c4ccccc4)o3)CC2)cc1,inactive
24,O=C(c1ccco1)N1CCN(c2ncnc3c2cnn3-c2ccccc2)CC1,inactive

row,Compound,Potency
1,CN1CCN(CCCNC(=O)c2ccc3c(c2)N(Cc2ccccc2)CCS3)CC1,inactive
2,CC(=O)N/C(N)=N/c1nc2cc(C)ccc2o1,"inconclusive: 5.8 µM [activator, partial curve]"
3,Cc1nc2sc(C(=O)Nc3ccccc3Cc3ccccc3)c(C)c2c(=O)[nH]1,"inconclusive: 29.1 µM [activator, single point]"
4,CC1(OC(=O)CCc2ccccc2)C(=O)C=C2C=C(c3ccc(C#N)cc3)N(CC3CC3)C=C2C1=O (stereo not given),inactive
5,NC(=O)c1ccccc1NC(=S)NC(=O)c1ccc(Br)o1,"inconclusive: 18.4 µM [activator, partial curve]"
6,O=C(Nc1ccc2c(c1)OCCO2)NC1(C(F)(F)F)Oc2ccccc2O1,"inconclusive: 20.6 µM [activator, single point]"
7,O=C1C2C3C=CC(C3)C2C(=O)N1Cc1ccc(CN2C(=O)C3C4C=CC(C4)C3C2=O)cc1 (stereo not given),"inconclusive: 16.4 µM [inhibitor, partial curve]"
8,CCn1cc(C(C)NC(=O)COc2ccc(Cl)cc2C)c(C)n1 (stereo not given),"inconclusive: 18.4 µM [inhibitor, single point]"
9,Cc1ccc(C)c(OCC(O)CN2CCN(CCN3C(=O)c4cccc5cccc(c45)C3=O)CC2)c1 (stereo not given),active: 18.4 µM
10,COc1ccc(Cl)cc1Nc1nc2ccc(C)cc2n2cnnc12,"inconclusive: 13 µM [inhibitor, partial curve]"
11,CC1CCc2sc(C(=O)NCC(c3ccco3)N3CCCCC3)cc2C1 (stereo not given),"inconclusive: 4.11 µM [inhibitor, partial curve, poor fit]"
12,CC1CCc2cc(F)ccc2N1C(=O)CSc1nnc2c3ccccc3n(C)c2n1 (stereo not given),"inconclusive: 8.2 µM [inhibitor, partial curve, poor fit]"
13,Oc1ccc(/C=N/Nc2ccccc2)cc1,inactive
14,O=C(NCc1ccccc1)c1cccc(COc2ccc(Cl)cc2)c1,"inconclusive: 2.59 µM [activator, partial curve]"
15,Cc1cccc(C(=O)Nc2sc3c(c2C(=O)O)CCC3)c1,"inconclusive: 3.26 µM [inhibitor, single point]"
16,COc1ccc(C)cc1Cn1nnc2ccccc21,inactive
17,C[C@@H](NC(=O)c1nc[nH]c1C(=O)N[C@@H](CCCCNC(=O)OC(C)(C)C)C(=O)OC(C)(C)C)c1ccccc1,"inconclusive: 14.6 µM [inhibitor, partial curve]"
18,O=C(/C=C/c1ccccn1)c1cc(Cl)cc(Cl)c1O,inactive
19,CCCOC1CCCN(C(=O)c2ccc(OC3CCN(C(=O)COC)CC3)cc2)C1 (stereo not given),"inconclusive: 29.1 µM [activator, partial curve, poor fit]"
20,CCc1ccc(OCC(=O)N/N=C2\CC(=O)c3ccccc32)cc1,"inconclusive: 8.2 µM [inhibitor, partial curve, poor fit]"
21,CCCC(c1nnnn1CC1CCCO1)N1CCN(c2nc3ccccc3s2)CC1 (stereo not given),active: 23.1 µM
22,CCc1cc2c(=O)c(-c3ccc4c(c3)OCCO4)c(C)oc2cc1OS(C)(=O)=O,active: 23.1 µM
23,CCOc1ccc2nc(SCC(=O)Nc3ccc4c(c3)OCCO4)[nH]c2c1,inactive
24,CCN(CC)C(=O)CC(c1ccc(F)cc1)c1ccc(OC(C)C)cc1 (stereo not given),inactive

# Some values from the results shown:
# Potency with `C[C@@H](NC(=O)c1nc[nH]c1C(=O)N[C@@H](CCCCNC(=O)OC(C)(C)C)C(=O)OC(C)(C)C)c1ccccc1` is entered as inconclusive: 14.6 µM [inhibitor, partial curve]
# Potency with `CC1CCc2sc(C(=O)NCC(c3ccco3)N3CCCCC3)cc2C1` (stereo not given) is entered as inconclusive: 4.11 µM [inhibitor, partial curve, poor fit]

# The list continues:

row,Compound,Potency
1,COc1cc(NC(=O)c2ccc(S(=O)(=O)N(C)c3ccccc3)cc2)cc(OC)c1,active: 23.1 µM
2,CC1CCC(C(=O)c2c(O)c3ccccc3oc2=O)CC1 (stereo not given),"inconclusive: 25.9 µM [inhibitor, partial curve, poor fit]"
3,Cc1ccc(-c2nnn(CC(=O)N(CC3CCCO3)C(C(=O)NC3CCCCC3)c3ccc(F)cc3)n2)o1 (stereo not given),"inconclusive: 29.1 µM [activator, partial curve, poor fit]"
4,CCOc1cc(C(=O)N(CC)CC(=O)Nc2c(F)cccc2F)ccc1OCC(=O)N1CCCCC1,inactive
5,CNc1ccccc1C(C)(C)c1cc(-c2cccc(OC)c2)no1,active: 1.46 µM
6,Cc1ccccc1NC(=O)CSc1nc2ccccc2c(=O)n1C,active: 14.6 µM
7,CC(C)OCCCNC(=O)C1CCN(S(=O)(=O)N2CCCC2)CC1,inactive
8,CC1CCN(C(=O)C2CCN(S(=O)(=O)c3ccc(-n4cnnn4)cc3)CC2)CC1,inactive
9,Cc1ccc(-c2ccc(SCC(=O)Nc3ccc4c(c3)OCCO4)nn2)cc1,"inconclusive: 20.6 µM [activator, partial curve]"
10,CN(/N=C/c1ccccc1O)C(=S)c1ccccc1,"inconclusive: 29.1 µM [activator, single point]"
11,COc1ccc([N+](=O)[O-])c(OC)c1C(=O)NC(=O)Nc1c(F)c(F)c(F)c(F)c1F,inactive
12,COc1ccc(Oc2cn[nH]c2-c2ccc(OC)cc2O)cc1,"inconclusive: 29.1 µM [inhibitor, partial curve, poor fit]"
13,CC(=O)c1cnn(-c2cc(Oc3ccc(F)cc3)ncn2)c1C,"inconclusive: 23.1 µM [activator, partial curve, poor fit]"
14,COc1ccc(CNCC(O)(c2ccccc2)c2ccccc2)cc1OC,active: 23.1 µM
15,COc1ccc(NC(=O)c2cc(S(=O)(=O)Nc3ccc(OC)cc3)cs2)cc1,"inconclusive: 20.6 µM [inhibitor, single point]"
16,Cc1ccc2nc(N3CC(=O)Nc4ccccc43)nc(-c3ccccc3)c2c1,inactive
17,O=C(COC(=O)CC1CCCC1)Nc1cc2c(cc1Cl)C(=O)c1ccccc1C2=O,"inconclusive: 18.4 µM [activator, partial curve]"
18,C/C(=N/NS(=O)(=O)c1ccc(C)cc1)c1cccc(NC(=O)c2cccc(Cl)c2)c1,inactive
19,C/[N+]([O-])=C\c1cccc(OCCN2CCN(c3ncc(C(F)(F)F)cc3Cl)CC2)c1,inactive
20,COCCn1c(-c2ccc(-c3ccccc3Cl)o2)nc2c1c(=O)[nH]c(=O)n2CC(C)C,"inconclusive: 2.59 µM [inhibitor, full curve]"
21,O=C(Nc1ccccc1-c1ccccc1)c1cccc([N+](=O)[O-])c1,"inconclusive: 13 µM [activator, partial curve]"
22,CCOc1ccc(NC(=O)C2CCN(S(=O)(=O)c3ccc4c(c3)CC(C)N4C(C)=O)CC2)cc1 (stereo not given),inactive

# Part of the list above in order of count of non-hydrogen atoms, descending.
row,Compound,Potency
19,C/[N+]([O-])=C\c1cccc(OCCN2CCN(c3ncc(C(F)(F)F)cc3Cl)CC2)c1,inactive
16,Cc1ccc2nc(N3CC(=O)Nc4ccccc43)nc(-c3ccccc3)c2c1,inactive
5,CNc1ccccc1C(C)(C)c1cc(-c2cccc(OC)c2)no1,active: 1.46 µM
